This assay concerns the target microtubule-associated serine/threonine kinase 1 (MAST1) (human (endogenous in A549)) (UniProt Q9Y2H9). Nature of the assay: co-IP; cell lysates (IP lysis buffer) incubated overnight at 4°C with anti-MAST1 (sc-373845), IgG as negative control, Protein A/G beads 2 h at 4°C; Western blot for Hsp90β, MAST1, CHIP and ubiquitin; CD133- and CD133+ A549 cells (Fig. 4e) and sorted A549 cells transduced with vector, oe-CHIP or oe-CHIP+oe-Hsp90β (Fig. 4g). (In general: Immunoblotting shows a protein as a band on a membrane.)

Protein sequences, listed by entry. Tags and fused reporters are not part of them.
UniProt Q9Y2H9: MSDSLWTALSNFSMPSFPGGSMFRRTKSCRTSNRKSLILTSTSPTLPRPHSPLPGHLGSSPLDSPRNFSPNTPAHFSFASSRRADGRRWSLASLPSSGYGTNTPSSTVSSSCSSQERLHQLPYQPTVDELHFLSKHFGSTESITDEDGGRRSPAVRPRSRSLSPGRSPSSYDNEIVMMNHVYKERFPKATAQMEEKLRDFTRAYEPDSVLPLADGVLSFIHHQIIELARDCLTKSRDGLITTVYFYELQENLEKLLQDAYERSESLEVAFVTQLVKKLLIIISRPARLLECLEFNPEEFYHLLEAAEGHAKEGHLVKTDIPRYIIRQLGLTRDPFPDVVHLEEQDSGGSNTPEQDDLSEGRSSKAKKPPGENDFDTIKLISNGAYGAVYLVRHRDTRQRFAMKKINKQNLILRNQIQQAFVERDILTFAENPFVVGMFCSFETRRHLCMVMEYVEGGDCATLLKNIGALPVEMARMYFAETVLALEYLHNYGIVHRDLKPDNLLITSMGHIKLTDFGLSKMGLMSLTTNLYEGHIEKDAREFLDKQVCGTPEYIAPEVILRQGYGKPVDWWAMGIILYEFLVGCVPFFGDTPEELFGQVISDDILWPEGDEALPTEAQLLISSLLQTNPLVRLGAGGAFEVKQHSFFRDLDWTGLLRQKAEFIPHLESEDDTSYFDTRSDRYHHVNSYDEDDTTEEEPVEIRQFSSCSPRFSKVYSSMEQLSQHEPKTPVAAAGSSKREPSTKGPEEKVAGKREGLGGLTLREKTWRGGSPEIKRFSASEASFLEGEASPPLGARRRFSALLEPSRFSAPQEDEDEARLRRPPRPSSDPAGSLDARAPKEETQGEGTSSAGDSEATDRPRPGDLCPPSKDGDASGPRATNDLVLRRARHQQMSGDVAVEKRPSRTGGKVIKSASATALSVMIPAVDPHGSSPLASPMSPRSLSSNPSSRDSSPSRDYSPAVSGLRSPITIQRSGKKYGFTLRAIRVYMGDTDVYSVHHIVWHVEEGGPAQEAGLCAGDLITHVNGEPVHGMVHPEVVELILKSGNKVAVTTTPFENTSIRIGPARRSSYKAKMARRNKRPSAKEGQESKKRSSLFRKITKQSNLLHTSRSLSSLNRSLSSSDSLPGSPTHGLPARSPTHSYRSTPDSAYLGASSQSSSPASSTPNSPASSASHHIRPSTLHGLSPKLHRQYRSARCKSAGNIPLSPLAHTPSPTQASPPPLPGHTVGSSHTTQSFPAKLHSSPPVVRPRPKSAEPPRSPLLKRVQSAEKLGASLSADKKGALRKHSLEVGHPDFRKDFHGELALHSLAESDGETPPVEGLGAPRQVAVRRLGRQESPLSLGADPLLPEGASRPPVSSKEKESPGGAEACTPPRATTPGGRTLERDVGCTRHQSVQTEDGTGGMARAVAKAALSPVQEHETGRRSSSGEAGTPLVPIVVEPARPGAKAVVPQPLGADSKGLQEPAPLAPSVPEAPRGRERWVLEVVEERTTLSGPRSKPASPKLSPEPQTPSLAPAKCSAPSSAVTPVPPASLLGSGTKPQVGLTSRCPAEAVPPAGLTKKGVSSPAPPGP
UniProt Q9UNE7: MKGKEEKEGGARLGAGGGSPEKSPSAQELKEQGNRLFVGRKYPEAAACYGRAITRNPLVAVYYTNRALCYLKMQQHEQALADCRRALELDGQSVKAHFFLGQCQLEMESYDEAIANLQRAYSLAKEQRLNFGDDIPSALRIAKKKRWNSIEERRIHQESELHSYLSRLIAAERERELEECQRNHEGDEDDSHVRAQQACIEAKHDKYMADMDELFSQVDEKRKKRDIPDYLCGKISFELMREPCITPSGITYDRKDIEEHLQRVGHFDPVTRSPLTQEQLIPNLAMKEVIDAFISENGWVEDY
UniProt P08238: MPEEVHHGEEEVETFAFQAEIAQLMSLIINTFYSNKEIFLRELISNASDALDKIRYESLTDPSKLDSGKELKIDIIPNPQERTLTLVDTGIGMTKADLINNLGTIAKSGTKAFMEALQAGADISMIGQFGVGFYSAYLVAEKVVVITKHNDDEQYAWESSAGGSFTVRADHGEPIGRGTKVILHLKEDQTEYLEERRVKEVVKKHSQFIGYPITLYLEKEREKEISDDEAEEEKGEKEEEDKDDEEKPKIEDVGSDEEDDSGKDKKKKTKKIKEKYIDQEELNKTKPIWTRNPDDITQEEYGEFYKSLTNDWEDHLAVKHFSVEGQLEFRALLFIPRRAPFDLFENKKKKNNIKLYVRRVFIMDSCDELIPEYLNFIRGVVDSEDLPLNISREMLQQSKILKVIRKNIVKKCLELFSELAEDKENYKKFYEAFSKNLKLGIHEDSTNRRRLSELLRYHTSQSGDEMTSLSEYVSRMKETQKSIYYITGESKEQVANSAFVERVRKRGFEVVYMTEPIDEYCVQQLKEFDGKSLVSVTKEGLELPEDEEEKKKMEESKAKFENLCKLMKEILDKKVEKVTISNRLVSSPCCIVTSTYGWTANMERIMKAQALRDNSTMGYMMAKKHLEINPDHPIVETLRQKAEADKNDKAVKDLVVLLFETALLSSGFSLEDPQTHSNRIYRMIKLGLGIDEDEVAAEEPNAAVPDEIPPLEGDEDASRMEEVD

No constants are given. Whether binding was seen depends on the method and setting. Binding seen in cells or lysates may run through a third protein. Some entries that bind do so weakly or less than the wild type.

As to “carboxyl terminal of Hsp70-interacting protein (CHIP), E3 ubiquitin ligase (from UniProt Q9UNE7 1-303) (enzyme)”, the binding result is recorded as “binds”.

As for “heat-shock protein 90 beta (Hsp90β) (from UniProt P08238 1-724)”, the binding result is listed as “binds”.

For the origin of these results see publication PMC9527118.
